Measurements reported in article PMC7049810.
Results are given in words; binding and its absence hold for the method and conditions named. For some of these results: A result given as binding can be weak or reduced; the word gives no strength.

Amino acid sequences for entries named in this document (tags omitted). A change or cut given only in a name is not applied to a line headed by its entry. Residues count along the entry.
UniProt P24228, residues 21-477: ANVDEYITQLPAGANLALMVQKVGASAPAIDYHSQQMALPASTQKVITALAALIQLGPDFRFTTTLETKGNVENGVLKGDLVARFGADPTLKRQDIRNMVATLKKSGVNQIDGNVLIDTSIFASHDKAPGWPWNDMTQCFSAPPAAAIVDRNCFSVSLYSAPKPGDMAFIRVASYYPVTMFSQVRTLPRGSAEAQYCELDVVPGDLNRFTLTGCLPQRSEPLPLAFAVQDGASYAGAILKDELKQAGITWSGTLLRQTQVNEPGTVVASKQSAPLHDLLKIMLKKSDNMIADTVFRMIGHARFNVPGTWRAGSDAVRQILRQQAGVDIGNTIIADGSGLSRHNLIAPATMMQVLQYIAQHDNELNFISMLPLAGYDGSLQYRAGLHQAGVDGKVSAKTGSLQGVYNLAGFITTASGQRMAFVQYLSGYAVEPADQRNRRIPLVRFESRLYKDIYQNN
UniProt P0AFS9: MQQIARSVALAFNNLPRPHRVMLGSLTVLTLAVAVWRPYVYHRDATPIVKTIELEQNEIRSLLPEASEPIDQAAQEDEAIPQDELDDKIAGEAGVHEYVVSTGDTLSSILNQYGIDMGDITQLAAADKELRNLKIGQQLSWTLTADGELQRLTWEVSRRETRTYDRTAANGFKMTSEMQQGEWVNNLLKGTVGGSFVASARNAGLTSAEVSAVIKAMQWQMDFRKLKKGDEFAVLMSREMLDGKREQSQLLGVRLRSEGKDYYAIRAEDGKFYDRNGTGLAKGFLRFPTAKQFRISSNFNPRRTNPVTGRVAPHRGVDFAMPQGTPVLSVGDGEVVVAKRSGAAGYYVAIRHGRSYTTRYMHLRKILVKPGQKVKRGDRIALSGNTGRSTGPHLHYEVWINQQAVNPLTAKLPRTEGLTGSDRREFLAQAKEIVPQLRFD

Legend:
[1] = molecular target: T1, NlpI, soluble version lacking its membrane anchor (Escherichia coli) (UniProt P0AFB1); test: pull-down; Ni2+-NTA agarose beads; His-tagged protein with untagged or native ligand, overnight at 4°C; 10 mM HEPES/NaOH, 10 mM MgCl2, 150 mM NaCl, 0.05% Triton X-100, pH 7.5; washes with 30 mM imidazole; SDS-PAGE; both purified
T1 sequence (chain, where used as fl-NlpI in MST, NT647 RED-NHS dye on amines): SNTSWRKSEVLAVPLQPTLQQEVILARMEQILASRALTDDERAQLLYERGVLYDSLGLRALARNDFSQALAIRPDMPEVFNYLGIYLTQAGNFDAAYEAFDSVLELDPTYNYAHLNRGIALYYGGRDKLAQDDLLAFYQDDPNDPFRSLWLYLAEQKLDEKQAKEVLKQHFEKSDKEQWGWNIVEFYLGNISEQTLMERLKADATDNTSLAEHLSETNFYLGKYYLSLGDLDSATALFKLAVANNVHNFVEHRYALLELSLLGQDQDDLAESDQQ

MepS (Escherichia coli) = molecular target: T2, MepS (Escherichia coli) (UniProt P0AFV4); test: MST + pull-down; endopeptidases tested against each other, 'a combination of MST and Ni2+-NTA pull-down assays'; all combinations of MepM, MepS, PBP4, PBP7; both purified
T2 sequence (chain, where used as fl-MepS in MST, NT647 RED-NHS dye on amines): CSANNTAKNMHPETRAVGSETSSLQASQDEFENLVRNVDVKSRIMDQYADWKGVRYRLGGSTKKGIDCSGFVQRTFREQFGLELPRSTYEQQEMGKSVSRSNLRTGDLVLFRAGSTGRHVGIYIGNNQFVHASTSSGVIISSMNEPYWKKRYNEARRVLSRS

[2] = molecular target: PBP4, native, purified (Escherichia coli) (UniProt P24228); test: as above
[3] = molecular target: T3, PBP7, purified (Escherichia coli) (UniProt P0AFI5); test: as above
T3 sequence (chain, where used as the labelled protein in MST, NT647 RED-NHS dye on amines): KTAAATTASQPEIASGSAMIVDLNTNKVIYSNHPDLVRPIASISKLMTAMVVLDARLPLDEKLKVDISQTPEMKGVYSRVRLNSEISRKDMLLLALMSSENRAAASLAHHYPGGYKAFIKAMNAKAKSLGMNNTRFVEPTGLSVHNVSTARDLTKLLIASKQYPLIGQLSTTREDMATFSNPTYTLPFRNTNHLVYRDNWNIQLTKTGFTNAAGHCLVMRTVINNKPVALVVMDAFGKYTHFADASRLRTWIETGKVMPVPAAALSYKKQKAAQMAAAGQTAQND

binding [1]: binds
binding (MepS (Escherichia coli)): binds
binding [2]: no binding
binding [3]: no binding
Substance: MepM (from UniProt P0AFS9) (enzyme)
